Measurements from PubChem BioAssay AID192 (DTP/NCI, 2004).
The list does not hold the whole screen: it gathers tests that were run many times, whatever their T/C, doses with no T/C, and many T/C values between a quarter and a half above the control. Further doses and runs are listed elsewhere. T/C gives the treated animals as a percentage of the vehicle group. Some entries give survivors of the animals treated and no T/C: the source holds a T/C of zero for them, seemingly a mark for toxic or unscored doses. Some survivor counts are full or nearly so, which does not show that the dose was tolerated: the source hardly ever lists a survival T/C far under the control, and the zero likely stands for such cases as well. Counts of survivors are from the toxicity check (mostly the fifth day) where no day follows; animals may have died later. Schedules are NCI's codes, taken here to give the interval after Q, in days (D) or hours (H), and the number of doses after X. Some entries hold several experiments; the results are listed from low to high. For survival time, the PubChem record calls one and a half times the control and up active, and a quarter to a half above the control has no call in these data; cut-offs in other NCI protocols can differ. Some T/C values carry the count of animals alive at the toxicity check (mostly the fifth day); without a count, all were alive then. Square brackets hold non-standard residues; d marks the D form. Peptide text beside a SMILES is read from it. * marks the point of attachment. Nle = CCCC[CH](N)C(=O)O; Cbz = O=C(OCc1ccccc1)*

Test system: BDF1 mice, B16 melanoma ip, median survival T/C
Assay: NCI In Vivo Anticancer Drug Screen. Data for tumor model B16 Melanoma (intraperitoneal) in B6D2F1 (BDF1) mice
Settings: T/C endpoint: median survival time, higher T/C = longer survival
In short: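 Read-out: survival or tumor size, given as treated/control ratio. Controls received vehicle only; animals bore transplantable tumors.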

[1] = dose: 200.0 mg/kg/injection, schedule: Q01DX009 (ip), vehicle: saline with Tween-80
[2] = dose: 400.0 mg/kg/injection, schedule: Q01DX009 (ip), vehicle: saline with Tween-80
[3] = dose: 25.0 mg/kg/injection, schedule: Q01DX009 (ip), vehicle: saline
[4] = dose: 100.0 mg/kg/injection, schedule: Q01DX009 (ip), vehicle: saline
[5] = dose: 200.0 mg/kg/injection, schedule: Q01DX009 (ip), vehicle: saline
[6] = dose: 100.0 mg/kg/injection, schedule: Q01DX009 (ip), vehicle: Klucel (hydroxypropylcellulose) (HPC)

O=C1C(F)=C(N2CC2)C(=O)C(N2CCOCC2)=C1N1CC1
survivor count (dose: 6.0 mg/kg/injection, schedule: Q01DX009 (ip), vehicle: saline): 10 of 10

CC[C@@]1(O)C[C@H](OC2CC(N(C)C)C(OC3CC(O)C(OC4CC(O)C(O)C(C)O4)C(C)O3)C(C)O2)c2c(cc3c(c2O)C(=O)c2c(O)ccc(O)c2C3=O)[C@H]1C(=O)OC (stereo not given in full)
T/C (dose: 0.12 mg/kg/injection, schedule: Q01DX009 (ip), vehicle: alcohol): 149 % of control
T/C (dose: 0.2 mg/kg/injection, schedule: Q01DX001 (ip), vehicle: saline): 132 % of control
T/C (dose: 0.25 mg/kg/injection, schedule: Q01DX009 (ip), vehicle: alcohol): 142 % of control
T/C (dose: 0.4 mg/kg/injection, schedule: Q01DX001 (ip), vehicle: saline): 141 % of control
T/C (dose: 0.5 mg/kg/injection, schedule: Q01DX009 (ip), vehicle: alcohol): 137 % of control [9 of 10 alive]
T/C (dose: 0.5 mg/kg/injection, schedule: Q01DX009 (ip), vehicle: other): 138 % of control [7 of 10 alive]
T/C (dose: 1.0 mg/kg/injection, schedule: Q01DX009 (ip), vehicle: other): 134 % of control [9 of 10 alive]
survivor count (dose: 2.0 mg/kg/injection, schedule: Q01DX009 (ip), vehicle: other): 9 of 10
T/C (dose: 2.16 mg/kg/injection, schedule: Q01DX001 (ip), vehicle: water): 127 % of control
survivor count (dose: 3.2 mg/kg/injection, schedule: Q01DX001 (ip), vehicle: saline): 5 of 10
T/C (dose: 3.6 mg/kg/injection, schedule: Q01DX001 (ip), vehicle: water): 133 % of control
survivor count (dose: 4.0 mg/kg/injection, schedule: Q01DX009 (ip), vehicle: other): 8 of 10
T/C (dose: 6.0 mg/kg/injection, schedule: Q01DX001 (ip), vehicle: water): 141 % of control
survivor count (dose: 8.0 mg/kg/injection, schedule: Q01DX009 (ip), vehicle: other): 2 of 10
survivor count (dose: 10.0 mg/kg/injection, schedule: Q01DX001 (ip), vehicle: water): 6 of 8

CC(=O)C1=C(O)C2(O)C(=O)c3c(c(C)c4ccc(C)c(O)c4c3O)CC2C(N)C1=O (stereo not given)
T/C (dose: 30.0 mg/kg/injection, schedule: Q01DX009 (ip), vehicle: saline + alcohol): 127 % of control
T/C (dose: 60.0 mg/kg/injection, schedule: Q01DX009 (ip), vehicle: saline + alcohol): 145 % of control
survivor count (dose: 120.0 mg/kg/injection, schedule: Q01DX009 (ip), vehicle: saline + alcohol): 2 of 10

Cc1cc(Cc2ccc(N=C=O)c(C)c2)ccc1N=C=O
survivor count (dose: 25.0 mg/kg/injection, schedule: Q01DX009 (ip), vehicle: saline with Tween-80): 10 of 10
survivor count (dose: 50.0 mg/kg/injection, schedule: Q01DX009 (ip), vehicle: saline with Tween-80): 10 of 10
survivor count (dose: 100.0 mg/kg/injection, schedule: Q01DX009 (ip), vehicle: saline with Tween-80): 10 of 10
survivor count [1]: 10 of 10
survivor count [2]: 8 of 10

C[C@]12CC[C@@H]3c4ccc(Oc5nc(N6CC6)nc(N6CC6)n5)cc4CC[C@H]3[C@@H]1CCC2=O
survivor count [3]: 10 of 10

O=C(NCCN1CC1)C(=O)NCCN1CC1
T/C (dose: 0.75 mg/kg/injection, schedule: Q01DX009 (ip), vehicle: saline with Tween-80): 133 % of control
T/C (dose: 1.56 mg/kg/injection, schedule: Q04DX003 (ip), vehicle: saline with Tween-80): 134 % of control
survivor count (dose: 3.0 mg/kg/injection, schedule: Q01DX009 (ip), vehicle: saline with Tween-80): 10 of 10
survivor count (dose: 6.0 mg/kg/injection, schedule: Q01DX009 (ip), vehicle: saline with Tween-80): 10 of 10
survivor count (dose: 12.0 mg/kg/injection, schedule: Q01DX009 (ip), vehicle: saline with Tween-80): 10 of 10
survivor count (dose: 12.5 mg/kg/injection, schedule: Q04DX003 (ip), vehicle: saline with Tween-80): 10 of 10
survivor count (dose: 25.0 mg/kg/injection, schedule: Q04DX003 (ip), vehicle: saline with Tween-80): 8 of 10

Cc1cn(C2CC3[O][Sn]([c]4ccccc4)([c]4ccccc4)[O]CC3O2)c(=O)[nH]c1=O (stereo not given)
T/C (dose: 6.25 mg/kg/injection, schedule: Q01DX009 (ip), vehicle: saline): 131 % of control
T/C (dose: 50.0 mg/kg/injection, schedule: Q01DX009 (ip), vehicle: saline): 131 % of control
T/C [4]: 133 % of control
survivor count [4]: 10 of 10
survivor count [5]: 5 of 10 and 10 of 10

C=CCNC(=O)/C=C/C(=O)NCC=C
survivor count (dose: 50.0 mg/kg/injection, schedule: Q04DX003 (ip), vehicle: saline with Tween-80): 10 of 10

COC1=C(N)C(=O)c2nc(-c3nc(C(=O)O)c(C)c(-c4ccc(OC)c(OC)c4O)c3N)ccc2C1=O
survivor count (dose: 0.8 mg/kg/injection, schedule: Q01DX009 (ip), vehicle: saline): 10 of 10
survivor count (dose: 400.0 micrograms/kg/injection, schedule: Q01DX009 (ip), vehicle: saline): 10 of 10
survivor count (dose: 800.0 micrograms/kg/injection, schedule: Q01DX009 (ip), vehicle: saline): 10 of 10

COc1ccc(N=Cc2ccc(C=Nc3ccc(OC)cc3)cc2)cc1
survivor count [6]: 10 of 10

CCNC(C)(C)C(SSSC(c1ccc(Cl)cc1)C(C)(C)NCC)c1ccc(Cl)cc1 (stereo not given)
survivor count (dose: 50.0 mg/kg/injection, schedule: Q01DX009 (ip), vehicle: Klucel (hydroxypropylcellulose) (HPC)): 10 of 10
survivor count [6]: 10 of 10

COc1cc2c(c(OC)c1O)-c1ccc(OC)c(=O)cc1[C@@H](NC(=O)C(F)(F)F)CC2
T/C (dose: 2.5 mg/kg/injection, schedule: Q01DX009 (ip), vehicle: Klucel (hydroxypropylcellulose) (HPC)): 125 % of control
survivor count (dose: 5.0 mg/kg/injection, schedule: Q01DX009 (ip), vehicle: Klucel (hydroxypropylcellulose) (HPC)): 9 of 10
survivor count (dose: 10.0 mg/kg/injection, schedule: Q01DX009 (ip), vehicle: Klucel (hydroxypropylcellulose) (HPC)): 8 of 10 and 10 of 10
survivor count (dose: 20.0 mg/kg/injection, schedule: Q01DX009 (ip), vehicle: Klucel (hydroxypropylcellulose) (HPC)): 6 of 10

CCCCC(C=O)(C=C=C(C)C)CC (stereo not given)
survivor count (dose: 400.0 mg/kg/injection, schedule: Q04DX003 (ip), vehicle: saline with Tween-80): 10 of 10

CCN(CC)CCOCCO
survivor count (dose: 400.0 mg/kg/injection, schedule: Q01DX009 (ip), vehicle: suspension in saline): 9 of 10

CCCCC(NC(=O)C(Cc1ccccc1)NC(=O)OCc1ccccc1)C(=O)O (stereo not drawn) (Cbz-Phe-[Nle]-OH; configuration not given here)
survivor count [1]: 10 of 10
survivor count [2]: 10 of 10

CCCCCCCCCCCCO[P+](=O)OCCCCCCCCCCCC
survivor count [5]: 10 of 10
survivor count (dose: 400.0 mg/kg/injection, schedule: Q01DX009 (ip), vehicle: saline): 4 of 10
survivor count (dose: 600.0 mg/kg/injection, schedule: Q01DX009 (ip), vehicle: saline): 2 of 10
survivor count (dose: 800.0 mg/kg/injection, schedule: Q01DX009 (ip), vehicle: saline): 0 of 10

COc1cccc2c1C(=O)c1c(O)c3c(c(O)c1C2=O)C[C@@](O)(C(C)=O)C[C@@H]3OC1CC(N(Cc2ccccc2)Cc2ccccc2)C(O)C(C)O1 (stereo not given in full)
T/C (dose: 25.0 mg/kg/injection, schedule: Q01DX001 (ip), vehicle: water): 130 % of control
T/C (dose: 100.0 mg/kg/injection, schedule: Q01DX001 (ip), vehicle: water): 146 % of control
survivor count (dose: 200.0 mg/kg/injection, schedule: Q01DX001 (ip), vehicle: water): 9 of 10 and 10 of 10
survivor count (dose: 400.0 mg/kg/injection, schedule: Q01DX001 (ip), vehicle: water): 7 of 10

C=C(Cl)c1c(C)cc(C)cc1C
survivor count [6]: 9 of 10
survivor count (dose: 200.0 mg/kg/injection, schedule: Q01DX009 (ip), vehicle: Klucel (hydroxypropylcellulose) (HPC)): 8 of 10

CC(=O)CC(C)=O.CC(=O)CC(C)=O.CC(=O)CC(C)=O.[V]
survivor count (dose: 12.5 mg/kg/injection, schedule: Q01DX009 (ip), vehicle: saline): 10 of 10
survivor count [3]: 3 of 10

CC(C)=CCC(OC(=O)C=C(C)C)C1=CC(=O)c2c(O)ccc(O)c2C1=O (stereo not given)
survivor count (dose: 1.0 mg/kg/injection, schedule: Q01DX009 (ip), vehicle: Klucel (hydroxypropylcellulose) (HPC)): 10 of 10
